{"source": "PubChem BioAssay AID540276", "about": "(National Center for Advancing Translational Sciences (NCATS), 2011)", "note": "“And” between values parts separate entries of the source, which are not always exact repeats. Equal values may be shown once. The campaign covered roughly 300,000 compounds. About 5,400 (1.8%) were called active. Inconclusive results, whose numbers are uncertain, are shown with a selection of clear calls. Calls come from the whole dose curve; tested in HEK293 cells. Potencies of inconclusive entries are doubtful fits and often do not repeat. % is set by controls: 0 for no effect and ±100 for the full control effect; potency is the fitted concentration of half-maximal effect."}
{"experiment": "qHTS for inhibitors of binding or entry into cells for Marburg Virus", "conditions": "Marburg virus pseudotyped entry inhibition, cell reporter; activity change, negative = inhibition: at 37.8 µM (top of the series) unless noted"}
{"molecule": "CCOc1ccc(-c2nnn(CCC#N)n2)cc1OC", "activity change, negative = inhibition": "inactive: 5.83% [at 46.1 µM]"}
{"molecule": "COc1ccc(Cc2noc(CN3CCCC(OCc4ccccn4)C3)n2)cc1OC", "note": "(stereo unspecified)", "activity change, negative = inhibition": "inactive: 2.36% [at 46.1 µM]"}
{"molecule": "CC(=O)Nc1ccc(S(=O)(=O)NCCSCc2ccc(Cl)cc2Cl)cc1", "Potency": "inconclusive: 12.6 µM [inhibitor, partial curve, poor fit]"}
{"molecule": "CCN(C(=O)c1cc2c(=O)n3ccccc3nc2s1)C1CCCCC1", "Potency": "inconclusive: 3.98 µM [activator, full curve, poor fit]"}
{"molecule": "CCCCn1c(N)c(N(CCOC)C(=O)c2cc3c(s2)CCC3)c(=O)[nH]c1=O", "Potency": "inconclusive: 0.891 µM [inhibitor, single point]"}
{"molecule": "COc1cc2c(CCNC(C)=O)c[nH]c2cc1Cl", "Potency": "inactive and inconclusive: 28.2 µM [activator, single point]"}
{"molecule": "O=C1C=C(c2ccc(Cl)cc2)C(=O)N1Nc1ccccc1", "Potency": "inconclusive: 22.4 µM [inhibitor, single point]"}
{"molecule": "COc1ccc(-c2nnc(Sc3nc4ccccc4o3)c3ccccc23)cc1", "Potency": "inconclusive: 9.2 µM [inhibitor, partial curve]"}
{"molecule": "Cc1cccc(OC(=O)Cn2c(C(F)(F)F)nc3ccccc32)c1", "Potency": "inconclusive: 0.1 µM [activator, partial curve, poor fit]"}
{"molecule": "Cc1ccccc1N1C(=O)c2cccc3c(N(C)CCO)ccc(c23)C1=O", "Potency": "inconclusive: 29.1 µM [inhibitor, single point]"}
{"molecule": "Cc1ccc(/C=N/NC(=O)CN2CCN(Cc3ccccc3)CC2)s1", "Potency": "inconclusive: 8.91 µM [inhibitor, partial curve, poor fit]"}
{"molecule": "CC1CCN(C(=O)c2cc3c(=O)n(C)c4cc(Cl)ccc4c3s2)CC1", "activity change, negative = inhibition": "inconclusive: 8.97% [activator] [at 46.1 µM]"}
{"molecule": "CCN(CC)S(=O)(=O)c1ccc(C(=O)NNC(=O)c2cccs2)cc1", "activity change, negative = inhibition": "inactive: 23.1%"}
{"molecule": "O=C(O)C1CC=CCC1C(=O)Nc1ccc(Oc2ccc(Cl)cc2)cc1", "note": "(stereo unspecified)", "Potency": "inconclusive: 5.62 µM [activator, single point]"}
{"molecule": "O=C(CCn1cnc2ccccc21)N/N=C/c1ccccc1O", "Potency": "inconclusive: 9.2 µM [inhibitor, partial curve, poor fit]"}
{"molecule": "CC(=O)c1c(C)[nH]c(C(=O)Nc2cc(C)ccc2C)c1C", "activity change, negative = inhibition": "inactive: -1.13%"}
{"molecule": "CSCCC(NS(=O)(=O)c1cccc(C(F)(F)F)c1)C(=O)N(C)CCOc1ccc(Cl)cc1", "note": "(stereo unspecified)", "Potency": "inconclusive: 35.5 µM [inhibitor, single point]"}
{"molecule": "Cc1ccccc1-c1nc2ccccc2[nH]1", "Potency": "inconclusive: 0.501 µM [activator, full curve, poor fit]"}
{"molecule": "O=C(Nc1ccccc1)c1ccccc1Oc1ccc(C(F)(F)F)cc1[N+](=O)[O-]", "Potency": "inconclusive: 35.5 µM [inhibitor, single point]"}
{"molecule": "Nc1cc(N)nc(SCC(=O)N2CCc3ccccc32)n1", "activity change, negative = inhibition": "inactive: 22.1%"}
{"molecule": "COc1cc(C)nc(NS(=O)(=O)c2ccc(C)cc2)n1", "Potency": "inconclusive: 0.355 µM [inhibitor, partial curve, poor fit]"}
{"molecule": "N#C/C(=C/c1ccc(N2CCCCC2)o1)C(=O)Nc1ccc2ccccc2c1", "Potency": "inconclusive: 0.58 µM [inhibitor, single point]"}
{"molecule": "Cc1ccc(Oc2ccc(/C=N/O)cn2)cc1", "Potency": "inconclusive: 2.82 µM [activator, partial curve, poor fit]"}
{"molecule": "CC(C)CNC(=O)c1c(N)n(Cc2ccco2)c2nc3ccccc3nc12", "Potency": "inconclusive: 29.1 µM [inhibitor, single point]"}
{"molecule": "CCOc1ccccc1C1CC(=O)Nc2cc3c(cc21)OCCO3", "note": "(stereo unspecified)", "Potency": "active: 8.2 µM"}
{"molecule": "Cc1ccc(/C=N/NC(=O)Nc2ccccc2)o1", "Potency": "inconclusive: 0.562 µM [activator, full curve, poor fit]"}
{"molecule": "CC(CCN1CCN(c2ccccc2)CC1)c1ccccc1", "note": "(stereo unspecified)", "Potency": "inconclusive: 20 µM [inhibitor, partial curve, poor fit]"}
{"molecule": "Cc1cc(NC(=O)CSc2nc(C(C)C)nc3ccccc23)no1", "Potency": "inconclusive: 11.6 µM [inhibitor, partial curve, poor fit]"}
{"molecule": "CC(C)COCC1CC2(CC(C)C(=O)CC2=O)C(=O)O1", "note": "(stereo unspecified)", "Potency": "inconclusive: 3.98 µM [activator, full curve, poor fit]"}
{"molecule": "Cc1ccc([N+](=O)[O-])cc1S(=O)(=O)n1ccnc1C", "Potency": "inconclusive: 31.6 µM [activator, single point]"}
{"molecule": "Cc1ccc(OC(=O)c2cccc(S(=O)(=O)N3CCCC3)c2)c(-n2nc3ccccc3n2)c1", "activity change, negative = inhibition": "inactive: -0.268%"}
{"molecule": "CCCOc1cccc(C2c3c(oc4ccc(F)cc4c3=O)C(=O)N2CCCN2CCOCC2)c1", "note": "(stereo unspecified)", "activity change, negative = inhibition": "inactive: 12.9% [at 46.1 µM]"}
{"molecule": "COc1ccc(OCc2cccc(C(=O)O)c2)cc1", "Potency": "inconclusive: 0.1 µM [inhibitor, full curve, poor fit]"}
{"molecule": "CCOC(=O)c1sc2ncn(CC(=O)N(CC)CC)c(=O)c2c1C", "Potency": "inconclusive: 2.91 µM [inhibitor, partial curve, poor fit]"}
{"molecule": "Cc1cc(/C=C2/C(=N)N3C(=NC2=O)SN=C3S(C)(=O)=O)c(C)n1-c1ccccc1F", "Potency": "inconclusive: 14.1 µM [inhibitor, single point]"}
{"molecule": "CCN(CC)C(=O)CSc1nc2cc3c(cc2c(=O)n1Cc1ccco1)OCO3", "activity change, negative = inhibition": "inactive: 0.168%"}
{"molecule": "CCC(C)c1ccccc1NC(=O)C1CCCO1", "note": "(stereo unspecified)", "activity change, negative = inhibition": "inactive: 10.4%"}
{"molecule": "C=CCn1c(SCC(=O)Nc2ccccc2OC)nnc1-c1ccccn1", "Potency": "inconclusive: 7.3 µM [inhibitor, partial curve, poor fit]"}
{"molecule": "CCN1C(=O)N[C@H](c2ccc(Br)cc2)C(C(=O)OC)=C1C", "Potency": "inconclusive: 0.006 µM [inhibitor, full curve, poor fit]"}
{"molecule": "COc1cc(NC(=O)Nc2ccccc2OC)c(OC)cc1NC(=O)CN1CCCCC1", "Potency": "inconclusive: 31.6 µM [inhibitor, single point]"}
{"molecule": "O=C(c1ccc(CS(=O)Cc2ccc(Cl)cc2)o1)N1CCN(c2cccc(Cl)c2)CC1", "note": "(stereo unspecified)", "Potency": "inconclusive: 35.5 µM [inhibitor, single point]"}
{"molecule": "Cc1ccc(-c2c3c(=O)n(C)c(=O)n(C)c3cn2Cc2ccccc2)cc1", "Potency": "inconclusive: 0.0065 µM [inhibitor, full curve, poor fit]"}
{"molecule": "CN(C=[N+](C)C)c1cccc2c1C(=O)c1ccccc1C2=O", "Potency": "inconclusive: 6.31 µM [inhibitor, single point]"}
{"molecule": "COc1ccc(OCc2ccc(C(=O)O)cc2)cc1", "Potency": "inconclusive: 1.64 µM [activator, partial curve, poor fit]"}
{"molecule": "Cc1nnc(NCCc2ccccc2)c2ccccc12", "Potency": "inconclusive: 11.2 µM [inhibitor, partial curve, poor fit]"}
{"molecule": "O=C(Nc1ccc2c(c1)OCCO2)c1cccnc1", "Potency": "inconclusive: 2.82 µM [activator, partial curve, poor fit]"}
{"molecule": "CCOc1ccc(NC(=O)CSc2ccccc2N)cc1", "Potency": "active: 3.55 µM"}
{"molecule": "O=C(c1ccc2c(c1)C(=O)N(CCCO)C2=O)c1ccc2c(c1)C(=O)N(CCCO)C2=O", "activity change, negative = inhibition": "inactive: 9.82%"}
{"molecule": "O=C(CSc1nnc(-c2ccc(Cl)cc2)n1-c1ccc(Cl)cc1)N/N=C/c1ccco1", "Potency": "inconclusive: 2 µM [inhibitor, partial curve, poor fit]"}
{"molecule": "CCOCCCNC(=S)Nc1ccc2nc(N3CCCC3)cc(C)c2c1", "Potency": "inconclusive: 35.5 µM [inhibitor, single point]"}
{"molecule": "CC(=O)Nc1ccc(-c2csc(Nc3ccc(S(N)(=O)=O)cc3)n2)cc1", "activity change, negative = inhibition": "inactive: -14.1% [at 46.1 µM]"}
{"molecule": "COc1ccc(Cl)cc1-n1c(C)cc(C=O)c1C", "activity change, negative = inhibition": "inactive: -11.7%"}
{"molecule": "O=C(NCC(c1cccnc1)N1CCN(c2ccccc2F)CC1)C1CCCCC1", "note": "(stereo unspecified)", "activity change, negative = inhibition": "inactive: -10.3%"}
{"molecule": "COc1cccc(CNc2nn[nH]n2)c1OC", "Potency": "inconclusive: 3.55 µM [inhibitor, single point]"}
{"molecule": "CC/C(C)=N/Nc1nc2sc3c(c2c(=O)[nH]1)CC(C)(C)OC3", "Potency": "inconclusive: 35.5 µM [inhibitor, single point]"}
{"molecule": "CC(=O)Nc1ccc(S(=O)(=O)NCc2ccccn2)cc1", "Potency": "inconclusive: 4.61 µM [activator, partial curve, poor fit]"}
{"molecule": "CCC(c1nnnn1CS(=O)(=O)c1ccc(C)cc1)N1CCN(c2nc3ccccc3s2)CC1", "note": "(stereo unspecified)", "Potency": "active: 8.2 µM"}
{"molecule": "COc1ccc(OCCCC(=O)OCC(=O)Nc2c(C)nn(-c3ccccc3)c2C)cc1", "Potency": "inconclusive: 3.98 µM [activator, single point]"}
{"molecule": "COC(=O)c1ccc(S(N)(=O)=O)o1", "Potency": "inconclusive: 35.5 µM [activator, single point]"}
{"molecule": "CCOc1ccc2nc(Cl)c(C3CC(c4ccco4)=NN3S(=O)(=O)c3ccccc3)cc2c1", "note": "(stereo unspecified)", "Potency": "inconclusive: 29.1 µM [inhibitor, partial curve, poor fit]"}
{"molecule": "O=C(Nc1ccc2oc(-c3ccccc3F)nc2c1)c1ccccc1F", "Potency": "inconclusive: 2.82 µM [activator, single point]"}
{"molecule": "Cc1ccc(S(=O)(=O)Nc2cncnc2NS(=O)(=O)c2ccc(C)cc2)cc1", "activity change, negative = inhibition": "inactive: 5.23% [at 46.1 µM]"}
{"molecule": "Cc1n(-c2ccccc2)c2ccc(Cl)cc2[n+]1CCO", "Potency": "inconclusive: 1.26 µM [inhibitor, partial curve, poor fit]"}
{"molecule": "O=C(CN1CCN(CC(=O)c2ccccc2)CC1)c1ccccc1", "Potency": "inconclusive: 2.51 µM [activator, full curve, poor fit]"}
{"molecule": "CCn1cc(S(=O)(=O)N2CCN(Cc3cccc(Cl)c3)CC2)cn1", "Potency": "inconclusive: 3.16 µM [inhibitor, single point]"}
{"molecule": "COc1ccc(CCn2c(C)nc3c(c(=O)c4ccccc4n3C)c2=O)cc1", "Potency": "inconclusive: 14.1 µM [inhibitor, partial curve, poor fit]"}
